According to article PMC12807481:
No constants are given. Whether binding was seen depends on the method and setting. Binding seen in cells or lysates may run through a third protein. These calls come from enrichment with a bait or labelling near it, and not all partners need be listed. Tags and fused reporters may be left off the sequences shown.

Sequences of proteins named here, by UniProt entry; tags and fusion partners are left off.
UniProt Q7Z6K1: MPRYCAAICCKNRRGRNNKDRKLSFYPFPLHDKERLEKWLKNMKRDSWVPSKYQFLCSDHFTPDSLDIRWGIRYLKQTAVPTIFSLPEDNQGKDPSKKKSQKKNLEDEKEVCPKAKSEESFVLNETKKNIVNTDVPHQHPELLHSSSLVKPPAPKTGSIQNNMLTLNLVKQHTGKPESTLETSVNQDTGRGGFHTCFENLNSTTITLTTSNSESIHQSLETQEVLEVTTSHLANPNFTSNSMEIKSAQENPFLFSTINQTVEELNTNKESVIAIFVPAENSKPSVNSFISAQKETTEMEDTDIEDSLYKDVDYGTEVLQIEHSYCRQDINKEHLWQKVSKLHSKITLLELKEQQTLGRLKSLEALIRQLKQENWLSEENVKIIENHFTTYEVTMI
UniProt P63208: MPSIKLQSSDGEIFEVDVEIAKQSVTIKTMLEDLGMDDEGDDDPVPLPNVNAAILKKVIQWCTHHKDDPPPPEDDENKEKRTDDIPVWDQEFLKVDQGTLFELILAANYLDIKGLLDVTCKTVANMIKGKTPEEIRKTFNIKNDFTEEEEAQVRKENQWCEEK

Target: T1, FLAG-tagged FBXO11 (UniProt Q86XK2)
T1 sequence: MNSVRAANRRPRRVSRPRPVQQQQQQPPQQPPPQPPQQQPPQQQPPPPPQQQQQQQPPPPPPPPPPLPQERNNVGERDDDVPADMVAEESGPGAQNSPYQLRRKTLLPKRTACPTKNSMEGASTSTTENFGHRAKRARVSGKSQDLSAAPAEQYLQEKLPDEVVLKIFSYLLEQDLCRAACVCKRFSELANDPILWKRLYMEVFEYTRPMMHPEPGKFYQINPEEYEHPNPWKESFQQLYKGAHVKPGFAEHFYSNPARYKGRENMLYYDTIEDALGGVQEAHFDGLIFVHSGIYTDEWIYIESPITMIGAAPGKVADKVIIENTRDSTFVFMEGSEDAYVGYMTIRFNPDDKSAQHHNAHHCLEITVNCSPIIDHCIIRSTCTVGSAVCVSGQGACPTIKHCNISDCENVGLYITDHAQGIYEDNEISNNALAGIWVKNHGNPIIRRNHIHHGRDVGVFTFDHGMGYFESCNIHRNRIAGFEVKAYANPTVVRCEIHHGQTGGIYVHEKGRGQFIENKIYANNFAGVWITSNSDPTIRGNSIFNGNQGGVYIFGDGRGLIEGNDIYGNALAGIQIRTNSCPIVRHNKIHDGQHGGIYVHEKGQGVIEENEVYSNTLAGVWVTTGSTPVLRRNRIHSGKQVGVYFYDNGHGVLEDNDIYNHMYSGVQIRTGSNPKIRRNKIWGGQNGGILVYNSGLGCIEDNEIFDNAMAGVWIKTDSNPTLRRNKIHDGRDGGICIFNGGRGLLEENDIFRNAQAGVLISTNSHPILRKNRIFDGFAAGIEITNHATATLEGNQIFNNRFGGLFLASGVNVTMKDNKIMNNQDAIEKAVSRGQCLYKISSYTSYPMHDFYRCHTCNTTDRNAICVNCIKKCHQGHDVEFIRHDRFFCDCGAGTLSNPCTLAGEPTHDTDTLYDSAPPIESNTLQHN
Assay: affinity purification with mass spectrometry; FLAG-FBXO11 immunoprecipitated from K562 cells, coimmunoprecipitating proteins identified by tandem mass spectrometry; two independent experiments, without and with endonuclease treatment

binding | Substance
binds | THAP5, transcriptional repressor (endogenous) (from UniProt Q7Z6K1 1-395)
binds | SKP1 (endogenous) (from UniProt P63208 1-163)
